Reference: patent publication EP0572122A2, “C-terminal modified osteogenic growth polypeptides” (YISSUM RESEARCH AND DEVELOPMENT COMPANY OF THE HEBREW …, priority 1992, dated 1993)
At least one peptide structure holds a part that was inferred or is arguable (an end, a ring closure or a residue). No end group written: not given here.

System: anti-OGP IgG
Experiment: ELISA reactivity of peptides with the anti-OGP IgG preparation
Format: binding, rabbits
Conditions: polyclonal rabbit anti-OGP IgG fraction

Compound: CSCC[C@H](NC(=O)[C@H](CC(C)C)NC(=O)CNC(=O)[C@H](Cc1ccccc1)NC(=O)[C@H](Cc1ccccc1)NC(=O)[C@H](CCC(N)=O)NC(=O)[C@H](CCC(N)=O)NC(=O)[C@@H]1CCCN1C(=O)[C@H](CCCCN)NC(=O)[C@@H]1CCCN1C(=O)[C@@H](N)CCCNC(=N)N)C(N)=O [substance P]
- binding to / reaction with anti-OGP IgG in ELISA: failed to react

Compound: RPPGFSPFR [bradykinin, Bradykinin]
- binding to / reaction with anti-OGP IgG in ELISA: failed to react
